Results are given in words; binding and its absence hold for the method and conditions named. Binding seen in cells or lysates may run through a third protein. For part of these data: A result given as binding can be weak or reduced; the word gives no strength.

For test [1], the target named is recombinant respiratory-specific, truncated (p25) CFAP45 isoform (mouse). The test can be described thus: co-IP; recombinant, epitope-tagged proteins co-expressed in HEK293 cells; immunoprecipitation of the bait; details only in supplementary figures.
For test [2], the target named is recombinant, epitope-tagged CFAP52 (552 amino acid isoform) (human). The description is as above.

B1: recombinant AK8 (enzyme, UniProt Q96MA6-1 1-479)
chain: MDATIAPHRIPPEMPQYGEENHIFELMQNMLEQLLIHQPEDPIPFMIQHLHRDNDNVPRIVILGPPASGKTTIAMWLCKHLNSSLLTLENLILNEFSYTATEARRLYLQRKTVPSALLVQLIQERLAEEDCIKQGWILDGIPETREQALRIQTLGITPRHVIVLSAPDTVLIERNLGKRIDPQTGEIYHTTFDWPPESEIQNRLMVPEDISELETAQKLLEYHRNIVRVIPSYPKILKVISADQPCVDVFYQALTYVQSNHRTNAPFTPRVLLLGPVGSGKSLQAALLAQKYRLVNVCCGQLLKEAVADRTTFGELIQPFFEKEMAVPDSLLMKVLSQRLDQQDCIQKGWVLHGVPRDLDQAHLLNRLGYNPNRVFFLNVPFDSIMERLTLRRIDPVTGERYHLMYKPPPTMEIQARLLQNPKDAEEQVKLKMDLFYRNSADLEQLYGSAITLNGDQDPYTVFEYIESGIINPLPKKIP
Regarding B1, the binding result in test [1] is reported as “no binding”; in test [2] it was “binds”.

B2: recombinant DNAI1 (protein, UniProt Q9UI46 1-699)
chain: MIPASAKAPHKQPHKQSISIGRGTRKRDEDSGTEVGEGTDEWAQSKATVRPPDQLELTDAELKEEFTRILTANNPHAPQNIVRYSFKEGTYKPIGFVNQLAVHYTQVGNLIPKDSDEGRRQHYRDELVAGSQESVKVISETGNLEEDEEPKELETEPGSQTDVPAAGAAEKVTEEELMTPKQPKERKLTNQFNFSERASQTYNNPVRDRECQTEPPPRTNFSATANQWEIYDAYVEELEKQEKTKEKEKAKTPVAKKSGKMAMRKLTSMESQTDDLIKLSQAAKIMERMVNQNTYDDIAQDFKYYDDAADEYRDQVGTLLPLWKFQNDKAKRLSVTALCWNPKYRDLFAVGYGSYDFMKQSRGMLLLYSLKNPSFPEYMFSSNSGVMCLDIHVDHPYLVAVGHYDGNVAIYNLKKPHSQPSFCSSAKSGKHSDPVWQVKWQKDDMDQNLNFFSVSSDGRIVSWTLVKRKLVHIDVIKLKVEGSTTEVPEGLQLHPVGCGTAFDFHKEIDYMFLVGTEEGKIYKCSKSYSSQFLDTYDAHNMSVDTVSWNPYHTKVFMSCSSDWTVKIWDHTIKTPMFIYDLNSAVGDVAWAPYSSTVFAAVTTDGKAHIFDLAINKYEAICNQPVAAKKNRLTHVQFNLIHPIIIVGDDRGHIISLKLSPNLRKMPKEKKGQEVQKGPAVEIAKLDKLLNLVREVKIKT
Turning to B2, the binding entry in test [2] is listed as “binds”.

For the origin of these results see paper PMC7606486, “CFAP45 deficiency causes situs abnormalities and asthenospermia by disrupting an axonemal adenine nucleotide homeostasis module” (Nature Communications, 2020).
